Results: paper PMC7819943, “Rice protein-binding microarrays: a tool to detect cis-acting elements near promoter regions in rice”
This is one part of the list.

Biological target: T1, OsSMF1 (Oryza sativa, UniProt Q6ZLB0 1-436)
T1 sequence: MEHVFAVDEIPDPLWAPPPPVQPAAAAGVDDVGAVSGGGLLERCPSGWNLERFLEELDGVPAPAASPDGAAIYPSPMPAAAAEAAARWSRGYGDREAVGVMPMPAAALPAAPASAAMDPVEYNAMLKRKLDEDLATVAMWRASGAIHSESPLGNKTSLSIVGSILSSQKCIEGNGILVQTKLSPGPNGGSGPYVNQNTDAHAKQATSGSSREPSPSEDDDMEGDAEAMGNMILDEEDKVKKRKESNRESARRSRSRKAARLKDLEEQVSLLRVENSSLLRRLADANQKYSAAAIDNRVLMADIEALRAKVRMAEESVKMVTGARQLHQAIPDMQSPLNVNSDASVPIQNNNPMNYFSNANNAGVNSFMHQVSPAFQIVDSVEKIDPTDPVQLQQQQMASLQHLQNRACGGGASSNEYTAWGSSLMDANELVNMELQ
Assay: protein-binding microarray (RPBM); PBS, 2% BSA, 51.3 ng/ul salmon testes DNA, 50 uM zinc acetate, 200 nM TF, 25 C, 1 h; high values mean tight binding
Conditions: protein: recombinant; tags: N-terminal polyhistidine and DsRed monomer fusion (pET32a); chain copies: 2; label: CyDye5-dUTP incorporated in the synthesized complementary strand; 3' TTTTT single-stranded linker to array surface; dsDNA, one strand shown
How it was run: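 Binding signal is defined as the fluorescence intensity of each feature in arbitrary units, read on an Axon 4000B scanner. Transcription factors with N-terminal polyhistidine and DsRed fusions came from E. coli BL21-CodonPlus and were purified on Ni–NTA. They were incubated at 200 nM for 1 h at 25 °C on a custom Agilent array that had been made double-stranded with Cy5-dUTP, with 50 µM zinc acetate present, and the array was washed.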

| Sequence | binding signal |
| --- | --- |
| AGCTAGGCGACGACACCGTCACACCGTCCCCGGTTGGCCGCGGAGTCACCTAGTGCAG | 4530 fluorescence intensity (a.u.) |
| GAGAAAGAGGGAGGGTGATGATGTGGATCACCCTAACATGCGGAGTCACCTAGTGCAG | 5450 fluorescence intensity (a.u.) |
| GGCGTTCCTGCCCAACCCAGCCCTGTTGCCATCCCTACGACGGAGTCACCTAGTGCAG | 3210 fluorescence intensity (a.u.) |
| TGAAGATGGGCTCCTGGCCACTCCAGCGCGACTGACCAGGCGGAGTCACCTAGTGCAG | 4020 fluorescence intensity (a.u.) |
| CCCTCTTTTCTCTCACCTCCACGTAACCCCTCTCGCCTTCCGGAGTCACCTAGTGCAG | 8640 fluorescence intensity (a.u.) |
| AACCCCACGTGTACGTTTCCTCGGGTGCACGTAGCGGATGCGGAGTCACCTAGTGCAG | 6050 fluorescence intensity (a.u.) |
| CTTAGCTAGGTCGATCGATCACACGTACGTGCGCGTGCATCGGAGTCACCTAGTGCAG | 4880 fluorescence intensity (a.u.) |
| AGTATGTCTAGGGGTATTTTAGATATTTCCCATCTCTCTCCGGAGTCACCTAGTGCAG | 3280 fluorescence intensity (a.u.) |
| TTTCAGCACTTCTAGATGGCCTAGTCAGCTCTGGGCTGAACGGAGTCACCTAGTGCAG | 5440 fluorescence intensity (a.u.) |
| CCTCGTCGTGCGCGTCCTTGGCCAGGGACGCTGACGCTGCCGGAGTCACCTAGTGCAG | 4990 fluorescence intensity (a.u.) |
| TCCAGCAAGCAGGCAAAGCAAGCAGCGAGCCAGCTACTGACGGAGTCACCTAGTGCAG | 23000 fluorescence intensity (a.u.) |
| GCAGAGCTGCAGTCCAACAACCATACACCTCATGTGCCGTCGGAGTCACCTAGTGCAG | 3370 fluorescence intensity (a.u.) |
| CTGAATTCTTACCAGTTTTGACAGTGTTCAACTAACCAAACGGAGTCACCTAGTGCAG | 3280 fluorescence intensity (a.u.) |
| TCCCTTCCTTCCGTATAGTGTAACGTACGCATCACCACCTCGGAGTCACCTAGTGCAG | 4000 fluorescence intensity (a.u.) |
| TATATATATATATATTCATTAACATCAATATTAATGTGGGCGGAGTCACCTAGTGCAG | 30100 fluorescence intensity (a.u.) |
| GTCGAAAACACACTCGATCGATCAGAAATTCCTGTCACCACGGAGTCACCTAGTGCAG | 3950 fluorescence intensity (a.u.) |
| CTATTGCATCCAACGGTTGAGATGGAGCTCTGATATTATCCGGAGTCACCTAGTGCAG | 3270 fluorescence intensity (a.u.) |
| GCCGAAGCCGACGACACATCACCGGCGGCCACTCATCGATCGGAGTCACCTAGTGCAG | 3240 fluorescence intensity (a.u.) |
| AAGGATATGGCTTGTGAAAGAATACTAGCTGACATGTAGGCGGAGTCACCTAGTGCAG | 3440 fluorescence intensity (a.u.) |
| AATGAATCTAGTCACACATATAAGTCTAGATTCATTAACACGGAGTCACCTAGTGCAG | 3250 fluorescence intensity (a.u.) |
| GGTCACGCGAATAGGATAGTCCCAAACACATGACATGGATCGGAGTCACCTAGTGCAG | 3690 fluorescence intensity (a.u.) |

| Sequence | binding signal |
| --- | --- |
| TGAGTGACTGACTAGCTTGCATTGTGTGGAGGTCGGCACGCGGAGTCACCTAGTGCAG | 3140 fluorescence intensity (a.u.) |
| GATGCTGACAAGGACCAACCATTAGAGTGACCATCCCCGTCGGAGTCACCTAGTGCAG | 4860 fluorescence intensity (a.u.) |
| TGGACACATGCAATTGCAAACGCAGCGCGCATGTGCAACACGGAGTCACCTAGTGCAG | 3800 fluorescence intensity (a.u.) |
| AAGTCATCACGAACGTCTCACTGCTGACGGGTATATCGTCCGGAGTCACCTAGTGCAG | 5360 fluorescence intensity (a.u.) |
| CCCATTTCTTGATGCGTGACGTGGCCTCCTATCTCACTGCCGGAGTCACCTAGTGCAG | 28100 fluorescence intensity (a.u.) |
| GACGTTAAACCCCACGTCCCCACCAAACCACCACCACTCTCGGAGTCACCTAGTGCAG | 4660 fluorescence intensity (a.u.) |
| GAGTAGGATATACGTGTGTGCGTGTTAATAGGGATGAGTGCGGAGTCACCTAGTGCAG | 4270 fluorescence intensity (a.u.) |
| ATACAGTACTAGGCTACTAGCTAGTGCAGTAGTCATAGTCCGGAGTCACCTAGTGCAG | 24700 fluorescence intensity (a.u.) |
| CATTTGCGTCCGTGGCACGTTGGGATATCTTGACCCGGAGCGGAGTCACCTAGTGCAG | 5910 fluorescence intensity (a.u.) |
| TATGCCATATATTTCCAGGTGTGGTGAAACCATGTGTCTTCGGAGTCACCTAGTGCAG | 3150 fluorescence intensity (a.u.) |
| AATAATTAGTTTTAAACATCATATCATAAGTCCACCACAACGGAGTCACCTAGTGCAG | 3900 fluorescence intensity (a.u.) |
| TAATATGCGAAACAGCTAACGGTCCTAGCGCATAAGTTCGCGGAGTCACCTAGTGCAG | 4760 fluorescence intensity (a.u.) |
| ATAGTTATAGTGTAGTTACGTGGTAGTTATAATATAACTACGGAGTCACCTAGTGCAG | 3320 fluorescence intensity (a.u.) |
| CCTTTTCAAAATCTCCACGTCTTTTGTTTGGCGCTCCCCTCGGAGTCACCTAGTGCAG | 7480 fluorescence intensity (a.u.) |
| GCCCAGCTGCGTGCATGCACTGGTGAGCACCATATCGGTCCGGAGTCACCTAGTGCAG | 3320 fluorescence intensity (a.u.) |
| TAAATATGTATTCTCTACATATGTAAGATCGACGTATCAGCGGAGTCACCTAGTGCAG | 3160 fluorescence intensity (a.u.) |
| CTATCTCTCCAACCAAACACTGTCGTATCATCCCACGTGTCGGAGTCACCTAGTGCAG | 7720 fluorescence intensity (a.u.) |
| GACGTGTGCGTCGTGCTAGCTAGAGATTAGACACGTGGACCGGAGTCACCTAGTGCAG | 10800 fluorescence intensity (a.u.) |
| ATGTGGCTGACGAGGCTCTTTTGCTTTATTCTGTGGTGTGCGGAGTCACCTAGTGCAG | 5830 fluorescence intensity (a.u.) |
| TCTTAATACTACGAATATGGATATGAACCAAAATTTTGTTCGGAGTCACCTAGTGCAG | 6610 fluorescence intensity (a.u.) |
| AAGATATTGCACGTGGCATCACTGTCCATTTACTCCAATGCGGAGTCACCTAGTGCAG | 9980 fluorescence intensity (a.u.) |

Single entries from the list.
Under binding signal, ATAGTTATAGTGTAGTTACGTGGTAGTTATAATATAACTACGGAGTCACCTAGTGCAG is entered as 3320 fluorescence intensity (a.u.)
Under binding signal, GATGCTGACAAGGACCAACCATTAGAGTGACCATCCCCGTCGGAGTCACCTAGTGCAG is entered as 4860 fluorescence intensity (a.u.)
